Data as given in patent publication US7977120B2, “Fluorescent sensors for cellular amines” (The Curators of the University of Missouri, priority 2005, dated 2011).

Test: Titration of Sensor Ia with various analytes (UV-vis and fluorescence)
Type: binding
Details: change in absorbance; 10 μM sensor Ia, 100 mM Na2S2O3, 50 mM HEPES, 20 mM NaCl, pH=7.0, 37° C.
Experimental: One exemplary coumarin-based sensor, 2-(((5-(7-(diethylamino)-3-formyl-2-oxo-2H-chromen-4-yl)pentyl)(methyl)amino)methyl)phenylboronic acid, sensor Ia, has been examined spectrophotometrically by titration with dopamine under neutral aqueous conditions in which a reducing agent is included to suppress oxidation of the air-sensitive catechol group.
The titration conditions are 10 μM sensor Ia with 100 mM Na2S2O3, 50 mM HEPES, 20 mM NaCl, pH=7.0, and at 37° C. […] See also, Org. Lett. 2004, 6(21), 3727-3730, which is incorporated herein by reference.
Binding constants (Ka) are determined by fluorescence titrations.

SMILES | Δλm01 [nm]
NC(CCC(=O)O)C(=O)O (stereo not shown) | 35
NCCCCC(N)C(=O)O (stereo not shown) | 36
NC1C(O)OC(CO)C(O)C1O (stereo not shown) | 39
NCCc1ccc(O)cc1 [Tyramine] | 31
NCCc1ccc(O)c(O)c1 [dopamine] | 30
CNCC(O)c1ccc(O)c(O)c1 (stereo not shown) [epinephrine] | 0
NCC(O)c1ccc(O)c(O)c1 (stereo not shown) [norepinephrine] | 24
